Results reported in PMC4154660.

The chains behind the UniProt entries cited, without tags or fusion partners. Where a name states a change or a piece, a line headed by the entry shows the natural chain unless it says otherwise.
UniProt F7VLP8: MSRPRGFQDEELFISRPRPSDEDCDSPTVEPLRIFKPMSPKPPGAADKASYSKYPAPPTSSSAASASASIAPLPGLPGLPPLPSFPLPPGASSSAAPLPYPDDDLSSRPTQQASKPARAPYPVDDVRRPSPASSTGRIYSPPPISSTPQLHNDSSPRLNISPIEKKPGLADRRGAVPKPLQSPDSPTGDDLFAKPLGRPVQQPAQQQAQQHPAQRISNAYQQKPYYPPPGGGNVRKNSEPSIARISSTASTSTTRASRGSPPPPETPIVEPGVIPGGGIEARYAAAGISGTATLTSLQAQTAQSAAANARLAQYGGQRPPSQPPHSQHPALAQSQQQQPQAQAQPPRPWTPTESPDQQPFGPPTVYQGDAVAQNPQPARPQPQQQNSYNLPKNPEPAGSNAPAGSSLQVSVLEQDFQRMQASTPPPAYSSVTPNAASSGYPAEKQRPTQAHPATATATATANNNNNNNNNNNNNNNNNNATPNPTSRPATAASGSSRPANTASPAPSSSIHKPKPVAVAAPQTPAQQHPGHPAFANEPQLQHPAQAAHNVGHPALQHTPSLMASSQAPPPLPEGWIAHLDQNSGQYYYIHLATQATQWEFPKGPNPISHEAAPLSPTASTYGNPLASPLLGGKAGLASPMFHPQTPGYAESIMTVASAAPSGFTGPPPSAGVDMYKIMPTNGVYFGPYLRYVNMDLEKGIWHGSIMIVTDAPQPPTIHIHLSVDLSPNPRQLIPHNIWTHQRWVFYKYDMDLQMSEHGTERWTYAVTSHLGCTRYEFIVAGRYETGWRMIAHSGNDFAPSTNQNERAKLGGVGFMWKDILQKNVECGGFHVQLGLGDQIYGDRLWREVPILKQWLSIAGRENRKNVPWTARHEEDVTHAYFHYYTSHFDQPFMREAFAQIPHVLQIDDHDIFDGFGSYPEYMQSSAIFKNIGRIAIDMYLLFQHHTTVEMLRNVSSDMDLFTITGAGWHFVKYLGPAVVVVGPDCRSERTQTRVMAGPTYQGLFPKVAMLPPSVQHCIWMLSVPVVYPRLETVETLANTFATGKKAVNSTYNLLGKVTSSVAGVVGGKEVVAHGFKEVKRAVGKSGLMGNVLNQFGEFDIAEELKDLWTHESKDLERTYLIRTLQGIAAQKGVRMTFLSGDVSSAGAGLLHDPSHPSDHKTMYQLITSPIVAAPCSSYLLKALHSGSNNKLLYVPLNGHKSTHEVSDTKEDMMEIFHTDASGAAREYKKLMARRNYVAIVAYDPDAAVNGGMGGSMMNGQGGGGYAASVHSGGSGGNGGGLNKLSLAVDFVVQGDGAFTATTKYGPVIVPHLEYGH
UniProt F7VVV0: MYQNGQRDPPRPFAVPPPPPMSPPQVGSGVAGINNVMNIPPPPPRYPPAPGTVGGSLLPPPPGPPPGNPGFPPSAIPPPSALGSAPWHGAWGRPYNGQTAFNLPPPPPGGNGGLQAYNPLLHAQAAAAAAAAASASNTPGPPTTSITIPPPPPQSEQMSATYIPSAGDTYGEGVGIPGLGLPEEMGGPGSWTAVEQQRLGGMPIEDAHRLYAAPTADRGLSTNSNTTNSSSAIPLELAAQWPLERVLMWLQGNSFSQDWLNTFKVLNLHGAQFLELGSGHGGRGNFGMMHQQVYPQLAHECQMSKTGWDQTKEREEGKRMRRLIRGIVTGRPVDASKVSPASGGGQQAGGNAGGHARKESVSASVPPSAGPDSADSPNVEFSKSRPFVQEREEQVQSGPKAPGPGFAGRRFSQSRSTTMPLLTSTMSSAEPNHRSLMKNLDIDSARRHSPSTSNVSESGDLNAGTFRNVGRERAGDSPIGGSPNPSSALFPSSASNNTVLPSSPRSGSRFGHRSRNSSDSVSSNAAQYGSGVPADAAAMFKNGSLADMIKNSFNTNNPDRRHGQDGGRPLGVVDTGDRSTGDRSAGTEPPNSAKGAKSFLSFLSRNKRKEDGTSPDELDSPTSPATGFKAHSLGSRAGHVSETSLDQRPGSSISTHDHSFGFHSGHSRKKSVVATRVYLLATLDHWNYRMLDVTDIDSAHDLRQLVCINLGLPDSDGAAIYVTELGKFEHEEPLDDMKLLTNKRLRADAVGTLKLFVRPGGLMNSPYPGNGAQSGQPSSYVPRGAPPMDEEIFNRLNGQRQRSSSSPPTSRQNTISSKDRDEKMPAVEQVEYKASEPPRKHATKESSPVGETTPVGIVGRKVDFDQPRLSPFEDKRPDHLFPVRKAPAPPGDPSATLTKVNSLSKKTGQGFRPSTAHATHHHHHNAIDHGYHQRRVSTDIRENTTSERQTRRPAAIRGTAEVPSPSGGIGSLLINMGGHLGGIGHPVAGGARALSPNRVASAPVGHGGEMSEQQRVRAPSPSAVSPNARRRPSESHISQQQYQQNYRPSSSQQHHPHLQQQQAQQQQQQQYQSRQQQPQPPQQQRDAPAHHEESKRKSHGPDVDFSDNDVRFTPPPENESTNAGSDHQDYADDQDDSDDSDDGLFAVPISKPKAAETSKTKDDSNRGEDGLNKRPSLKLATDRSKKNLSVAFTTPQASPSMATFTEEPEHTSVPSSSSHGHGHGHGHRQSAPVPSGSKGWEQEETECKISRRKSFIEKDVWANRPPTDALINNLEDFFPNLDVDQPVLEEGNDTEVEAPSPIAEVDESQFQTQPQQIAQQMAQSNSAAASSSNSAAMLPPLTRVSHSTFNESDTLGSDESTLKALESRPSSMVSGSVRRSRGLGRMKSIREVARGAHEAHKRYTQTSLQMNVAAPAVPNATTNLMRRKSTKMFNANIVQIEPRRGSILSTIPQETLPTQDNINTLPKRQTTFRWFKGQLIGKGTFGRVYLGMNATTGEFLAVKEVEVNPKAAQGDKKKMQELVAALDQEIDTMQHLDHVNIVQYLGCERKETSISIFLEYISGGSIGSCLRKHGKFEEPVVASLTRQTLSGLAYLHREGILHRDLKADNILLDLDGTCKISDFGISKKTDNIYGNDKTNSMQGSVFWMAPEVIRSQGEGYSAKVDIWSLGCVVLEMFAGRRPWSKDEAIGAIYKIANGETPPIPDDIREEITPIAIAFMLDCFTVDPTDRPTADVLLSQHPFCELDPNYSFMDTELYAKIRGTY

Columns and labels:
[1] = molecular target: PRO40 (yeast two-hybrid, full length) (Sordaria macrospora) (UniProt F7VLP8); experiment: two-hybrid; reciprocal matrix of GAL4-AD and -BD fusions in diploid yeast, drop-plated on SD lacking leucine, tryptophan, histidine and adenine
[2] = molecular target: MEK1 (yeast two-hybrid matrix) (Sordaria macrospora) (UniProt F7W2W0); experiment: as above

binding [1]: binds
Molecule: MEK1 (yeast two-hybrid matrix) (from UniProt F7W2W0) (enzyme)

binding [2]: binds
binding [1]: binds
Molecule: MIK1 (yeast two-hybrid, full length) (from UniProt F7VVV0 1-1764) (enzyme)

binding [2]: no binding
binding [1]: binds
B1: PKC1 (yeast two-hybrid, full length) (enzyme, UniProt F7W233 1-1146)
chain: MNDEDKVHDISKKIEREKALINAAQAMRQQTNNEQVRSKLDTQMREGRRNLEFFEEKLRELQMRRLGHGVDNMSLGASPMSGSHRQSVDDFEGHGAPTPPPKEGGRGHSSHQSQGSGPLMPASGPYPGGPPDSAVPRARPNYTRLDLIKFDTPHLGPRIQLMLSQIQFKLNVEEQYLKGIEKMVQLYQMEGDKKSKLDAAAKRVESKQKIVLLKQALKRYEELHIDIDVDGPDDDSINLPALRKPLSGTLSIRILAVKDVDHAPLGRFARSPETFIAVKAEDIIVARTRPSRNDRWEAEFHTFPVDKTNEIEFTVYDKPSEHPVPIAMLWVRISDIVEELRRKKIEAEMTSAGWVSADRVGSRAPPPQFPMGTQSPQFAAPPTSPGSQEQNIMIPPQAPPPSQVVSQPVDGWFNLEPYGQIHLSFNFMKESRPQGMDRLGRKGAVRQRKEEVHEMYGHKFVQKQFYNIMRCALCGDFLKYSAGMQCEDCKYTCHTKCYTSVVTKCISKSNAETDPDEEKINHRIPHRFIPFSNLTANWCCHCGYMLPIGSKKNSRKCSECALTAHAQCVHLVPDFCGMSMAVANQILEGIRTQKKTHKDKASSMSERTLRPGSKTSFSSGSIAQTSTYSGSTAYTSIASPEATEAAKLMYSQTTPRPAGPDRTSTSSTTASAAAAAAMAPKHSSQPSQAGSIPDFGGNYGGSGSYGHPESREDEYNAQQQQGYGSPQQRKYNPADYANIGAYSSPPQAQHPQQQQQQQSPQQVSPMYQQNPQTPISKPQPVAPSYDNQVVPSASGVPVPTKKPLPSATDPGTGMRIGLDHFNFLAVLGKGNFGKVMLAETKKSRKLYAIKVLKKEFIIENDEVESIRSEKRVFLIANRERHPFLTNLHACFQTETRVYFVMEYISGGDLMLHIQRGMFGTKRAQFYAAEVCLALKYFHENGVIYRDLKLDNILLTLDGHIKIADYGLCKEDMWYGSTTSTFCGTPEFMAPEILLDKKYGRAVDWWAFGVLIYQMLLQQSPFRGEDEDEIYDAILADEPLYPIHMPRDSVSILQKLLTREPDQRLGSGPTDAQEIMSQPFFRNINWDDIYHKRVQPPFLPQIKSATDTSNFDSEFTSVTPVLTPVQSVLSQAMQEEFRGFSYTADFE

These are yes or no findings as the source states them, for the method shown. Binding can be weak; no strength is given. One block for each molecule: values may come before it.
